Assay results as given in paper PMC8242032, “Non-canonical function of DGCR8 in DNA double-strand break repair signaling and tumor radioresistance” (Nature Communications, 2021).
Results are given in words; binding and its absence hold for the method and conditions named. In cells and extracts the contact can be indirect. Some entries that bind do so weakly or less than the wild type. For part of these data: Tags and fused reporters may be left off the sequences shown. Blank lines part the entries; values can stand above or below the molecule they belong to.

Sequences of proteins named here, by UniProt entry; tags and fusion partners are left off.
UniProt Q8IYW5: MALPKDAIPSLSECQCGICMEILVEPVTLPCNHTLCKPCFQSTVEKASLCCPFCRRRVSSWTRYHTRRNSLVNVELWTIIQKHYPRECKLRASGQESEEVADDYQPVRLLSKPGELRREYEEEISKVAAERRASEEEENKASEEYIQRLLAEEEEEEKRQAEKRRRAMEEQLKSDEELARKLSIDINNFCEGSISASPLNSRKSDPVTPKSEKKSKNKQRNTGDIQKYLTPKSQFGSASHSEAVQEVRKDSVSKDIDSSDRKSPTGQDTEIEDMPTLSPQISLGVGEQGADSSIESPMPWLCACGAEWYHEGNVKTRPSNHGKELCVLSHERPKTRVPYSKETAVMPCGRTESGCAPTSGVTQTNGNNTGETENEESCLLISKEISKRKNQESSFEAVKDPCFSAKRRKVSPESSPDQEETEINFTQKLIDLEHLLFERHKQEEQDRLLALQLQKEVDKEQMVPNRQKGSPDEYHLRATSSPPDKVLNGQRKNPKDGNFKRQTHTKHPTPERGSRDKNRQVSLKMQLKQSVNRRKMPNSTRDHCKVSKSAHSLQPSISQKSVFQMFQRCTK

Key:
[1] = target: T1, MYC-DGCR8 (wild-type, full-length) (human) (UniProt Q8WYQ5); assay: co-IP; DGCR8 co-IP in HEK293T cells with or without IR (Supplementary Fig. 2c; details not shown)
T1 sequence: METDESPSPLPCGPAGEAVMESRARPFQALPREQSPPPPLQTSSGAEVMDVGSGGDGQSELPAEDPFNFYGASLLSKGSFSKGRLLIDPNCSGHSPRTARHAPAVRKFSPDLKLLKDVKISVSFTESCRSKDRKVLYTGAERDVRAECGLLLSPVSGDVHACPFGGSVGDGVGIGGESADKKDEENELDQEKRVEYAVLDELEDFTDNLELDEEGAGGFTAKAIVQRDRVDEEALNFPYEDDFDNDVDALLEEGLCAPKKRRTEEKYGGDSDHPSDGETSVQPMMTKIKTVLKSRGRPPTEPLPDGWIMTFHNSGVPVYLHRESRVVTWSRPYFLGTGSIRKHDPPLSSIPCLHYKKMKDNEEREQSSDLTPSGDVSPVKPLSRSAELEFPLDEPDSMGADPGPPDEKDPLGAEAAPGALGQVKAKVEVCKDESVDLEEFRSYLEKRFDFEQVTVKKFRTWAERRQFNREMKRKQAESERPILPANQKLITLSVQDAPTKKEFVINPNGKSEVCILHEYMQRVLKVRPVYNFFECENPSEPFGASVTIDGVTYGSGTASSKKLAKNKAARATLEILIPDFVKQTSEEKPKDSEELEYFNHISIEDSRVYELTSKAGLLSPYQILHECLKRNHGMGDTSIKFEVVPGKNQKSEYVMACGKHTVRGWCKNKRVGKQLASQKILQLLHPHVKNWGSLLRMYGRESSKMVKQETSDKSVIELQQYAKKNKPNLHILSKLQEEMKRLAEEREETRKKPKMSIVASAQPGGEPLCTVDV

[2] = target: T2, DGCR8 (endogenous) (human (endogenous in LM2)) (UniProt Q8WYQ5); assay: co-IP; chromatin fractions of LM2 cells (IR 8 Gy followed by 1 h), with or without MNase treatment, immunoprecipitated with a DGCR8-specific antibody
T2 sequence: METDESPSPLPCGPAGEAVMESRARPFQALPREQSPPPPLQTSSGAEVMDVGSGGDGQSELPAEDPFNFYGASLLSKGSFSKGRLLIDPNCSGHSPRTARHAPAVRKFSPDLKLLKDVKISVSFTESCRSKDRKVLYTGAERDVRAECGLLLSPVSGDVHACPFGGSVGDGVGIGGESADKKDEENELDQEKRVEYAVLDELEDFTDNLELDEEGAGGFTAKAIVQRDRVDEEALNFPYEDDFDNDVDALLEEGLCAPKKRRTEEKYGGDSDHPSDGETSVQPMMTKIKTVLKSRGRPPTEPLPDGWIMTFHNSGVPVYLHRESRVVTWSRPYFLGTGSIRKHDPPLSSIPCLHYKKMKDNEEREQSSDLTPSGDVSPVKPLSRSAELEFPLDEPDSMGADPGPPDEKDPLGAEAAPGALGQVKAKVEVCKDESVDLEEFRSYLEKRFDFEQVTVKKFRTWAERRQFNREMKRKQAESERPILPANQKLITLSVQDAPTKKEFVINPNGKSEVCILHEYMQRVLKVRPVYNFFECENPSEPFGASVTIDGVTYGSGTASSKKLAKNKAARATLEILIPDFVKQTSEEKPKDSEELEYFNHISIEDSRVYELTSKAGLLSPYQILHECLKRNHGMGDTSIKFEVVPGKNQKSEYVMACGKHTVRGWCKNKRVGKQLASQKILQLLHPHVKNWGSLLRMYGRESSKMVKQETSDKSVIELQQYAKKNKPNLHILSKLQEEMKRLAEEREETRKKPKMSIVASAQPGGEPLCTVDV

[3] = target: T1, MYC-DGCR8 (wild-type, full-length) (human); assay: co-IP; MYC-tagged DGCR8 (WT, S677A or S677D) overexpressed in LM2 cells, with or without IR (8 Gy followed by 1 h or 8 h); pulldown with anti-MYC agarose beads, 4 °C, 2 h; immunoblotting
[4] = target: T1, MYC-DGCR8 (wild-type, full-length) (human); assay: co-IP; HEK293T cells co-transfected with MYC-DGCR8 and SFB-tagged USP36 or USP51; after 48 h immunoprecipitated with anti-MYC beads; immunoblotting for FLAG and MYC
[5] = target: T2, DGCR8 (endogenous) (human (endogenous in LM2)); assay: co-IP; endogenous proteins; DGCR8 immunoprecipitated with a DGCR8-specific antibody from LM2 (and LM2-R) cells, with or without 8 Gy IR followed by 8 h; CHAPS buffer

binding [1]: binds
binding [2]: binds
binding [3]: binds
Molecule: RNF168 (endogenous) (from UniProt Q8IYW5 1-571) (enzyme)

binding [4]: binds
B1: SFB-USP51 (enzyme, human, UniProt Q70EK9 1-711, looked up)
chain: MAQVRETSLPSGSGVRWISGGGGGASPEEAVEKAGKMEEAAAGATKASSRREAEEMKLEPLQEREPAPEENLTWSSSGGDEKVLPSIPLRCHSSSSPVCPRRKPRPRPQPRARSRSQPGLSAPPPPPARPPPPPPPPPPPAPRPRAWRGSRRRSRPGSRPQTRRSCSGDLDGSGDPGGLGDWLLEVEFGQGPTGCSHVESFKVGKNWQKNLRLIYQRFVWSGTPETRKRKAKSCICHVCSTHMNRLHSCLSCVFFGCFTEKHIHKHAETKQHHLAVDLYHGVIYCFMCKDYVYDKDIEQIAKETKEKILRLLTSTSTDVSHQQFMTSGFEDKQSTCETKEQEPKLVKPKKKRRKKSVYTVGLRGLINLGNTCFMNCIVQALTHIPLLKDFFLSDKHKCIMTSPSLCLVCEMSSLFHAMYSGSRTPHIPYKLLHLIWIHAEHLAGYRQQDAHEFLIAILDVLHRHSKDDSGGQEANNPNCCNCIIDQIFTGGLQSDVTCQACHSVSTTIDPCWDISLDLPGSCATFDSQNPERADSTVSRDDHIPGIPSLTDCLQWFTRPEHLGSSAKIKCNSCQSYQESTKQLTMKKLPIVACFHLKRFEHVGKQRRKINTFISFPLELDMTPFLASTKESRMKEGQPPTDCVPNENKYSLFAVINHHGTLESGHYTSFIRQQKDQWFSCDDAIITKATIEDLLYSEGYLLFYHKQGLEKD
notes: USP51, human DUB ORF in the pBabe-SFB vector; also called SFB-tagged USP51; source: HEK293T, transfected, in lysate; purified from transfected HEK293T cells

binding [4]: binds
B2: SFB-USP36 (enzyme, UniProt Q9P275 1-1123)
chain: MPIVDKLKEALKPGRKDSADDGELGKLLASSAKKVLLQKIEFEPASKSFSYQLEALKSKYVLLNPKTEGASRHKSGDDPPARRQGSEHTYESCGDGVPAPQKVLFPTERLSLRWERVFRVGAGLHNLGNTCFLNATIQCLTYTPPLANYLLSKEHARSCHQGSFCMLCVMQNHIVQAFANSGNAIKPVSFIRDLKKIARHFRFGNQEDAHEFLRYTIDAMQKACLNGCAKLDRQTQATTLVHQIFGGYLRSRVKCSVCKSVSDTYDPYLDVALEIRQAANIVRALELFVKADVLSGENAYMCAKCKKKVPASKRFTIHRTSNVLTLSLKRFANFSGGKITKDVGYPEFLNIRPYMSQNNGDPVMYGLYAVLVHSGYSCHAGHYYCYVKASNGQWYQMNDSLVHSSNVKVVLNQQAYVLFYLRIPGSKKSPEGLISRTGSSSLPGRPSVIPDHSKKNIGNGIISSPLTGKRQDSGTMKKPHTTEEIGVPISRNGSTLGLKSQNGCIPPKLPSGSPSPKLSQTPTHMPTILDDPGKKVKKPAPPQHFSPRTAQGLPGTSNSNSSRSGSQRQGSWDSRDVVLSTSPKLLATATANGHGLKGNDESAGLDRRGSSSSSPEHSASSDSTKAPQTPRSGAAHLCDSQETNCSTAGHSKTPPSGADSKTVKLKSPVLSNTTTEPASTMSPPPAKKLALSAKKASTLWRATGNDLRPPPPSPSSDLTHPMKTSHPVVASTWPVHRARAVSPAPQSSSRLQPPFSPHPTLLSSTPKPPGTSEPRSCSSISTALPQVNEDLVSLPHQLPEASEPPQSPSEKRKKTFVGEPQRLGSETRLPQHIREATAAPHGKRKRKKKKRPEDTAASALQEGQTQRQPGSPMYRREGQAQLPAVRRQEDGTQPQVNGQQVGCVTDGHHASSRKRRRKGAEGLGEEGGLHQDPLRHSCSPMGDGDPEAMEESPRKKKKKKRKQETQRAVEEDGHLKCPRSAKPQDAVVPESSSCAPSANGWCPGDRMGLSQAPPVSWNGERESDVVQELLKYSSDKAYGRKVLTWDGKMSAVSQDAIEDSRQARTETVVDDWDEEFDRGKEKKIKKFKREKRRNFNAFQKLQTRRNFWSVTHPAKAASLSYRR

binding [5]: binds
B3: USP36 (endogenous) (enzyme, UniProt Q9P275 1-1123)
chain: MPIVDKLKEALKPGRKDSADDGELGKLLASSAKKVLLQKIEFEPASKSFSYQLEALKSKYVLLNPKTEGASRHKSGDDPPARRQGSEHTYESCGDGVPAPQKVLFPTERLSLRWERVFRVGAGLHNLGNTCFLNATIQCLTYTPPLANYLLSKEHARSCHQGSFCMLCVMQNHIVQAFANSGNAIKPVSFIRDLKKIARHFRFGNQEDAHEFLRYTIDAMQKACLNGCAKLDRQTQATTLVHQIFGGYLRSRVKCSVCKSVSDTYDPYLDVALEIRQAANIVRALELFVKADVLSGENAYMCAKCKKKVPASKRFTIHRTSNVLTLSLKRFANFSGGKITKDVGYPEFLNIRPYMSQNNGDPVMYGLYAVLVHSGYSCHAGHYYCYVKASNGQWYQMNDSLVHSSNVKVVLNQQAYVLFYLRIPGSKKSPEGLISRTGSSSLPGRPSVIPDHSKKNIGNGIISSPLTGKRQDSGTMKKPHTTEEIGVPISRNGSTLGLKSQNGCIPPKLPSGSPSPKLSQTPTHMPTILDDPGKKVKKPAPPQHFSPRTAQGLPGTSNSNSSRSGSQRQGSWDSRDVVLSTSPKLLATATANGHGLKGNDESAGLDRRGSSSSSPEHSASSDSTKAPQTPRSGAAHLCDSQETNCSTAGHSKTPPSGADSKTVKLKSPVLSNTTTEPASTMSPPPAKKLALSAKKASTLWRATGNDLRPPPPSPSSDLTHPMKTSHPVVASTWPVHRARAVSPAPQSSSRLQPPFSPHPTLLSSTPKPPGTSEPRSCSSISTALPQVNEDLVSLPHQLPEASEPPQSPSEKRKKTFVGEPQRLGSETRLPQHIREATAAPHGKRKRKKKKRPEDTAASALQEGQTQRQPGSPMYRREGQAQLPAVRRQEDGTQPQVNGQQVGCVTDGHHASSRKRRRKGAEGLGEEGGLHQDPLRHSCSPMGDGDPEAMEESPRKKKKKKRKQETQRAVEEDGHLKCPRSAKPQDAVVPESSSCAPSANGWCPGDRMGLSQAPPVSWNGERESDVVQELLKYSSDKAYGRKVLTWDGKMSAVSQDAIEDSRQARTETVVDDWDEEFDRGKEKKIKKFKREKRRNFNAFQKLQTRRNFWSVTHPAKAASLSYRR
